Publication PMC9744749
Results are given in words; binding and its absence hold for the method and conditions named. Binding seen in cells or lysates may run through a third protein. Here binding means that the protein was enriched with, or labelled near, the bait; the list need not be complete.

Protein sequences, listed by entry. Tags and fused reporters are not part of them.
UniProt Q8BKJ9: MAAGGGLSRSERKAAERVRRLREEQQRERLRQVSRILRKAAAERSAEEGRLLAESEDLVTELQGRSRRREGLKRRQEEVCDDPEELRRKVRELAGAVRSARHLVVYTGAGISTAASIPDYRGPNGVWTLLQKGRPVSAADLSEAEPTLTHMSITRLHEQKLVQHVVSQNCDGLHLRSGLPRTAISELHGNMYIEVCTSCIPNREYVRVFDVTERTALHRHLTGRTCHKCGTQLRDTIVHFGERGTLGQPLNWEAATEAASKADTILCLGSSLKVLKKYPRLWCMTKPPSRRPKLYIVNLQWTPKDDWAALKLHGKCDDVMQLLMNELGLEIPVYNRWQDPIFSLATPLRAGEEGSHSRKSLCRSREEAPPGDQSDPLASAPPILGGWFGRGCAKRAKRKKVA
UniProt Q5SF07: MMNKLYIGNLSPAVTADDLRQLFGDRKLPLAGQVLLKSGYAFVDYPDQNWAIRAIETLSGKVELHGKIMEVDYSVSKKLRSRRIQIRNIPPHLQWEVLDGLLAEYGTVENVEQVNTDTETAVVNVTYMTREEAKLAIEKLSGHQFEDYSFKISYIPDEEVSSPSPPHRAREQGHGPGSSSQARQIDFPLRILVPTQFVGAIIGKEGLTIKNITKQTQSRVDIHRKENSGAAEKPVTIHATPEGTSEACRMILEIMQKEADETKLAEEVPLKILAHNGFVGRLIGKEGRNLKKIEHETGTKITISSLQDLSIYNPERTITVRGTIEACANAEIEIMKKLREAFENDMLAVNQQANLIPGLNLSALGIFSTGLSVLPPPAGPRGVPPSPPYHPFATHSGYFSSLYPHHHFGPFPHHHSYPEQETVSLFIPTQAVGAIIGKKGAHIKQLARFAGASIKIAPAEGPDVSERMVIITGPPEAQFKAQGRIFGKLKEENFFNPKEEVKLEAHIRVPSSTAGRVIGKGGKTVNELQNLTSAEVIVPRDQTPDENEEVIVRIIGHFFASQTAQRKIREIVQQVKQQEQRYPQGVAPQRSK

Biological target: Halo-SIRT7 (UniProt Q8BKJ9)
Experiment: affinity purification with mass spectrometry; Halo-SIRT7 immobilised on HaloLink Resin, incubated with extract of cultured brown adipocytes in pull-down buffer (10 mM Tris-HCl pH 7.4, 150 mM NaCl, 0.5% NP-40, 10 mM nicotinamide, 1 uM TSA) at 4 °C overnight; bound proteins resolved by SDS-PAGE, silver staining, LC-MS/MS; performed one time; only the target purified

insulin-like growth factor 2 mRNA-binding protein 2 (endogenous, brown adipocytes) (from UniProt Q5SF07 1-592)
binding: binds
